T/C data for one compound are collected here from PubChem BioAssay AID238 (DTP/NCI, 2004).

The test system of this test is CAF1 mice, leiomyosarcoma No.2 ip, survival T/C%. Nature of the test: NCI In Vivo Anticancer Drug Screen. Data for tumor model Leiomyosarcoma (No. 2) (intraperitoneal) in CAF1 mice. The conditions noted are these: T/C endpoint: mean survival time, schedule: Q01DX010 (ip), vehicle: saline, higher T/C = longer survival. How it is done:
The antitumor activity of compounds was measured in mice bearing transplantable tumors. Survival or tumor size were measured and the results are expressed as the measurement made in the treated group (T) divided by the measurement made in the vehicle treated control group (C). The tumor model used in this assay is Leiomyosarcoma (No. 2) (intraperitoneal) in CAF1 mice

Structures are written as SMILES. The list is a part of this screen's results and no random one: its compounds were picked by chemical class. Not every dose and run of a compound is shown. T/C is the treated group as % of the vehicle group. Where survival is the endpoint, this PubChem deposit counts one and a half times the control or more as active, and values a quarter to a half above the control carry no call in these data; other NCI protocols may use other cut-offs. Some T/C values are marked as having no survivor count here; that says nothing about deaths at the dose. Schedules are NCI's codes, taken here to give the interval after Q, in days (D) or hours (H), and the number of doses after X. Some entries were tested several times; their values stand side by side, smallest first.

As for `CN(CCCl)CCCl`, the T/C was 111 [survivor count not shown] and 146 % of control [survivor count not shown] (dose: 0.13 mg/kg/injection); 86 [survivor count not shown] and 253 % of control [survivor count not shown] (dose: 0.25 mg/kg/injection); 96 % of control [survivor count not shown] (dose: 0.5 mg/kg/injection).
